No constants are given. Whether binding was seen depends on the method and setting. In cells and extracts the contact can be indirect. Here binding means that the protein was enriched with, or labelled near, the bait; the list need not be complete. For some assays here: No binding means not detected with the bait.

Chains of the proteins cited; added tags and fusions are not shown.
UniProt P06241: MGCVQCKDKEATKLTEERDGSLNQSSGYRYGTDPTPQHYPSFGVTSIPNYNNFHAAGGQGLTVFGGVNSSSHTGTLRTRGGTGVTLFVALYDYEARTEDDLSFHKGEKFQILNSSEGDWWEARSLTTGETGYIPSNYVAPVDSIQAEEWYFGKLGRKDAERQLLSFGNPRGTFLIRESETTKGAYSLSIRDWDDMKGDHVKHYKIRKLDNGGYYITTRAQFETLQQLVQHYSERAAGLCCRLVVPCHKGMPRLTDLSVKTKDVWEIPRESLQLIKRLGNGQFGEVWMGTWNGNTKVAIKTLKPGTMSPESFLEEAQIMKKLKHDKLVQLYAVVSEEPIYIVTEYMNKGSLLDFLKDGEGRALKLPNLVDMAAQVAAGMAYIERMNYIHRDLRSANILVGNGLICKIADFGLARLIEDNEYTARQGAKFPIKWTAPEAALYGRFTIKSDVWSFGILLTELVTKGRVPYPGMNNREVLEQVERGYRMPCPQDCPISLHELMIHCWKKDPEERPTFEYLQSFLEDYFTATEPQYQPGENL
UniProt P08631: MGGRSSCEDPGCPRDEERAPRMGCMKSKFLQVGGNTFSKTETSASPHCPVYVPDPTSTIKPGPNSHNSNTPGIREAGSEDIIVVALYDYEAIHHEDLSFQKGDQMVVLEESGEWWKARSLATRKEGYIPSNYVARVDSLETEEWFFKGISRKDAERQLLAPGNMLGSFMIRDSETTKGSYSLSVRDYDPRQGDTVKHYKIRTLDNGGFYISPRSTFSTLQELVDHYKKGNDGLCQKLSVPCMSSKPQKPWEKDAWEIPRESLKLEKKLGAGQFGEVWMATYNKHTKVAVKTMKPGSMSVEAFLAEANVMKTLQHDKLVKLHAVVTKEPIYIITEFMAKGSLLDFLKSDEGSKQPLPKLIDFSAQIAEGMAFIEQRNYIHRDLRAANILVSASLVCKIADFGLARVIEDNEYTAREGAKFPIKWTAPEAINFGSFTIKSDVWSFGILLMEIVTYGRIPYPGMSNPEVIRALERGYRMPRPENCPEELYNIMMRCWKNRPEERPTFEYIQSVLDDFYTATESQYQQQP
UniProt Q2TAZ0: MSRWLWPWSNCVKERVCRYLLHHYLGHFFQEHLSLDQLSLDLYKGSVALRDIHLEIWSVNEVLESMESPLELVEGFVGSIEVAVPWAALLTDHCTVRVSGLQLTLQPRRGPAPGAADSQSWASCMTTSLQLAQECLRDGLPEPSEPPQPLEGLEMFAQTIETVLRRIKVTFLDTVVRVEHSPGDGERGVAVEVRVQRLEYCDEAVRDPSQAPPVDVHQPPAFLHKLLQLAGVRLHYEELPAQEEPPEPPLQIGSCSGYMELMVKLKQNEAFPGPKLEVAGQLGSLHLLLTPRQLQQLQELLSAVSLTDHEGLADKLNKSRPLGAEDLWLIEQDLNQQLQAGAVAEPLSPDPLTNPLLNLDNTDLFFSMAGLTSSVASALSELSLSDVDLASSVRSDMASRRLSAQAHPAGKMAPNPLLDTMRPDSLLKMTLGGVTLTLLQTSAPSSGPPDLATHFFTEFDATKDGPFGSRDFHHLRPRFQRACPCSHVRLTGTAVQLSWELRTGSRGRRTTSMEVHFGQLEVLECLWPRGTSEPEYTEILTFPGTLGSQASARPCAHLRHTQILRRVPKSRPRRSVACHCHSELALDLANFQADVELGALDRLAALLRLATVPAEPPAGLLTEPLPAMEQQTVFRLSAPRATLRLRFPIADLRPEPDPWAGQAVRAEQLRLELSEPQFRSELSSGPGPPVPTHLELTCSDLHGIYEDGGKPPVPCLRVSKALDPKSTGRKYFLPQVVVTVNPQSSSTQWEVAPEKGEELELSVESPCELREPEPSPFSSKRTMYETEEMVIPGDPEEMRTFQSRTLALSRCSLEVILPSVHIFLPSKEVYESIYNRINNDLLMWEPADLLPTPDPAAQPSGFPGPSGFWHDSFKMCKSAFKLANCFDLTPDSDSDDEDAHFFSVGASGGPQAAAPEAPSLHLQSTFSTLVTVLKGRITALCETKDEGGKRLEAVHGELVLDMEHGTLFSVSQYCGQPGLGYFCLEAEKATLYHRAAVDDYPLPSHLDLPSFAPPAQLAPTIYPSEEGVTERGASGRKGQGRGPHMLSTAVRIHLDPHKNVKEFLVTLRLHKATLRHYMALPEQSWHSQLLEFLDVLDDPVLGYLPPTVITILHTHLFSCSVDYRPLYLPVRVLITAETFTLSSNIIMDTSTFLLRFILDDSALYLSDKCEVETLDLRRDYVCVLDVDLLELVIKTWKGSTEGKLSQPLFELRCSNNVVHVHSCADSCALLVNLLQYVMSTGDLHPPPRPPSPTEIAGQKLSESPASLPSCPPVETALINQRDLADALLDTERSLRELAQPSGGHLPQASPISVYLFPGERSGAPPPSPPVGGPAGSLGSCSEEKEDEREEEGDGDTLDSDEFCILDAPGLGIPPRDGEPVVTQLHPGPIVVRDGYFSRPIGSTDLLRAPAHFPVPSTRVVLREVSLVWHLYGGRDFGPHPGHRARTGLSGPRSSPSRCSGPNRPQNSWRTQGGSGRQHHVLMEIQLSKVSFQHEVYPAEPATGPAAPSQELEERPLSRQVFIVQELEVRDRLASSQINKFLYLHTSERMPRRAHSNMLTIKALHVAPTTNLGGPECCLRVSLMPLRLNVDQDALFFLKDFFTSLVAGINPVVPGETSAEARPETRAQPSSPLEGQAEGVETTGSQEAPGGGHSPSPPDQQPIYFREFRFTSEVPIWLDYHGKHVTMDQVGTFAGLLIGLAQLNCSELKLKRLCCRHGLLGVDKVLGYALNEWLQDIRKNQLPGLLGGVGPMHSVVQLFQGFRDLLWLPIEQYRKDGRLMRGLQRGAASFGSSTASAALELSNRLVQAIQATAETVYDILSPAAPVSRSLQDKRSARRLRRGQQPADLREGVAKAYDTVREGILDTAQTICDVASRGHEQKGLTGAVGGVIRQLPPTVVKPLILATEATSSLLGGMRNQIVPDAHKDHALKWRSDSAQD
UniProt Q9HAV0: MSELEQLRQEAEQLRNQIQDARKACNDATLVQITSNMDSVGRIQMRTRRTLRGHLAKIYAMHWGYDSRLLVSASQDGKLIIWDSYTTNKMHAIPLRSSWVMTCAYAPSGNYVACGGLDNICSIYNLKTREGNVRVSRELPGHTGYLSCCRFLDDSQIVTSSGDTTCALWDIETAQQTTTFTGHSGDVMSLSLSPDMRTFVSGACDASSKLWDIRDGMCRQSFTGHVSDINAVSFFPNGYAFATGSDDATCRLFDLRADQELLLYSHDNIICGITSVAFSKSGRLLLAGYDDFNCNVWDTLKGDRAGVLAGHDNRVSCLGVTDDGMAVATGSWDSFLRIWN
UniProt O00401: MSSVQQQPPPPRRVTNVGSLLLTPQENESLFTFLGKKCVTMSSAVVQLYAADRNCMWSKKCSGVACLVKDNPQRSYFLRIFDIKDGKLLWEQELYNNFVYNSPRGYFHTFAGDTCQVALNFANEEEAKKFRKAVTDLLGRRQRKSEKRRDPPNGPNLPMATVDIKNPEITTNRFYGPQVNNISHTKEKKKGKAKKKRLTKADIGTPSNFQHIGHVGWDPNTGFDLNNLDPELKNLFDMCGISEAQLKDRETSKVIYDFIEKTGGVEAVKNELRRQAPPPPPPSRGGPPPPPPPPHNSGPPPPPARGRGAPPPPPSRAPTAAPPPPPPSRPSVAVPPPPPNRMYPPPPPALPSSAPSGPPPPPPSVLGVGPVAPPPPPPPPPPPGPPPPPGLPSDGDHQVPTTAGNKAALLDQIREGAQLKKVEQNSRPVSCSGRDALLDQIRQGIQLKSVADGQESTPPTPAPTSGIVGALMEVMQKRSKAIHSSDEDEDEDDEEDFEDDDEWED
UniProt Q14160: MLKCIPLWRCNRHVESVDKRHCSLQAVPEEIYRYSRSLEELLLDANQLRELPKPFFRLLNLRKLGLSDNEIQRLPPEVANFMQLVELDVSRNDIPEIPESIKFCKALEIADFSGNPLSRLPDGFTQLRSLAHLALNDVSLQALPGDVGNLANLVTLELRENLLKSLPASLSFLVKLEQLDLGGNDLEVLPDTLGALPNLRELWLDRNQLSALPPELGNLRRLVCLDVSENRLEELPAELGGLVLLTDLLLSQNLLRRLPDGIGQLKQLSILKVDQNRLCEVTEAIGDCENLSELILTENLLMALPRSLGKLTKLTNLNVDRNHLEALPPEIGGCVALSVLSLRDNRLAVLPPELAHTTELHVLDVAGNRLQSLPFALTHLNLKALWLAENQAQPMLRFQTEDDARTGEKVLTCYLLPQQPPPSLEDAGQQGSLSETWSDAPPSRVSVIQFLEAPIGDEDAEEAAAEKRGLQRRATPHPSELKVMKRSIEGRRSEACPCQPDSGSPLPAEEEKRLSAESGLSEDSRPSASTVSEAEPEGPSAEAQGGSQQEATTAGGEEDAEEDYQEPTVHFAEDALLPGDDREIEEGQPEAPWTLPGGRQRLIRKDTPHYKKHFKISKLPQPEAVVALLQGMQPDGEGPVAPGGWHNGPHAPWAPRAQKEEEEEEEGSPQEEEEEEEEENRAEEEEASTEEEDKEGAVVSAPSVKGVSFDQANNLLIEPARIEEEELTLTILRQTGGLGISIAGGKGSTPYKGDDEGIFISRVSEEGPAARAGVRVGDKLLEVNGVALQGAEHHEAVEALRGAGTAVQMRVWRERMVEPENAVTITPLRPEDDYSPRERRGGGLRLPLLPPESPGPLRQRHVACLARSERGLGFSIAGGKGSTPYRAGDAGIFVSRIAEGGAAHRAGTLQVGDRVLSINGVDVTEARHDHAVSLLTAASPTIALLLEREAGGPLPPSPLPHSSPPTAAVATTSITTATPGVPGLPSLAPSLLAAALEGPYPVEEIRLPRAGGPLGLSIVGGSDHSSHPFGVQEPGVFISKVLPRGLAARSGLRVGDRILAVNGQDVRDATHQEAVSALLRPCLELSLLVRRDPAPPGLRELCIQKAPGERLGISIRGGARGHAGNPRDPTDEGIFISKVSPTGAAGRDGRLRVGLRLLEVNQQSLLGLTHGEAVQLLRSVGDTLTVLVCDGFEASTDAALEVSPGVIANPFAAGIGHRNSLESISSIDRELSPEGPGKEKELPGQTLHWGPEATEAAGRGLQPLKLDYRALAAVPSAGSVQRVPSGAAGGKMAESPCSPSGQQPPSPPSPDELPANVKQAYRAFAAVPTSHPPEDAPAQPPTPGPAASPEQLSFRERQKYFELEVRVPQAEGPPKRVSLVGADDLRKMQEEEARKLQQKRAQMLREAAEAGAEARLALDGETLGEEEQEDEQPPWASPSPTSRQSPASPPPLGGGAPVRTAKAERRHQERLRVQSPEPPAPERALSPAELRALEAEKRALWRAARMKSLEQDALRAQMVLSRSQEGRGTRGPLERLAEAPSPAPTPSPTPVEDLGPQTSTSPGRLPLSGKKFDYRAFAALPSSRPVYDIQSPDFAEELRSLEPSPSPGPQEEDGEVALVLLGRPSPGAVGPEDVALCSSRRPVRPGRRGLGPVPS

Assay [1] concerns the target FYN-V5 (V5-tagged, overexpressed) (UniProt P06241). Nature of the assay: affinity purification with mass spectrometry; HCK-V5, FYN-V5 or SRC-V5 overexpressed in HEK293; lysates 48 h after transfection immunoprecipitated with anti-V5-tag magnetic beads, run on PAGE gels, lanes sent for mass spectrometry; ranked by ratio of overexpression to control lane.
Assay [2] deals with HCK-V5 (hematopoietic cell kinase, V5-tagged, overexpressed) (UniProt P08631). Described as above.

In the case of “Autophagy-related protein 2 homolog A (ATG2A) (from UniProt Q2TAZ0 1-1938)”, the binding entry in assay [1] is given as “no binding”; in assay [2] it was “binds”. Regarding “Guanine nucleotide-binding protein b4 (GNB4) (from UniProt Q9HAV0 1-340)”, the binding result in assay [2] is listed as “binds”. Take “Heat shock protein HSP 90-alpha (HSP90AA1) (from UniProt P07900 1-732)”: in assay [1], the binding entry is “binds”. Take “Neural Wiskott-Aldrich syndrome protein (WASL) (from UniProt O00401 1-505)”: the binding result in assay [2] was “binds”. For the molecule “Protein scribble homolog (SCRIB) (from UniProt Q14160 1-1655)”, the binding result in assay [1] is given as “binds”.

B1: Hsp90 co-chaperone Cdc37 (CDC37) (protein, UniProt Q16543 1-378)
chain: MVDYSVWDHIEVSDDEDETHPNIDTASLFRWRHQARVERMEQFQKEKEELDRGCRECKRKVAECQRKLKELEVAEGGKAELERLQAEAQQLRKEERSWEQKLEEMRKKEKSMPWNVDTLSKDGFSKSMVNTKPEKTEEDSEEVREQKHKTFVEKYEKQIKHFGMLRRWDDSQKYLSDNVHLVCEETANYLVIWCIDLEVEEKCALMEQVAHQTIVMQFILELAKSLKVDPRACFRQFFTKIKTADRQYMEGFNDELEAFKERVRGRAKLRIEKAMKEYEEEERKKRLGPGGLDPVEVYESLPEELQKCFDVKDVQMLQDAISKMDPTDAKYHMQRCIDSGLWVPNSKASEAKEGEEAGPGDPLLEAVPKTGDEKDVSV
For B1, the binding result in assay [1] is recorded as “binds”.

B2: Ras-related protein Rab-3D (RAB3D) (protein, UniProt O95716 1-219)
chain: MASAGDTQAGPRDAADQNFDYMFKLLLIGNSSVGKTSFLFRYADDSFTPAFVSTVGIDFKVKTVYRHDKRIKLQIWDTAGQERYRTITTAYYRGAMGFLLMYDIANQESFAAVQDWATQIKTYSWDNAQVILVGNKCDLEDERVVPAEDGRRLADDLGFEFFEASAKENINVKQVFERLVDVICEKMNESLEPSSSSGSNGKGPAVGDAPAPQPSSCSC
For the molecule B2, the binding entry in assay [2] is “binds”.

The values are drawn from publication PMC10354075.
